In patent US20060293395A1, “Methods for treating a mammal before, during and after cardiac arrest” (priority 2004, published 2006):

What was measured:
male domestic pigs = test: Example 3: dobutamine vs levosimendan in the porcine model of cardiac arrest and cardiac resuscitation; format: in vivo, pig; details: FIG. 21
Procedure: Experimental Preparation: The experiments were performed in the porcine model of cardiac arrest and cardiac resuscitation which has been extensively exercised. (21,22). […] Anesthesia was initiated by intramuscular injection of ketamine (20 mg kg^−1) and was completed by ear vein injection of sodium pentobarbital (30 mg kg^−1). Additional 8 mg kg^−1 doses of sodium pentobarbital were injected to maintain anesthesia at intervals of one hour. A cuffed endotracheal tube was advanced into the trachea. Animals were mechanically ventilated with a volume of 15 mL kg^−1, peak airway flow of 40 L min^−1, and FiO2 of 0.2 with the aid of a volume-controlled ventilator (Model MA-1, Puritan-Bennett, Carlsbad, Calif.). End-tidal PCO2 (PETCO2) was monitored with an infrared analyzer (Model 01R-7101A, Nihon Kohden Corp, Tokyo, Japan). Respiratory frequency was adjusted to maintain PETCO2 between 35 and 40 mmHg. Blood temperature was maintained at 37±0.5° C. with the aid of infrared heating lamps, as required.
For the measurement of left ventricular functions, a 5.5/7.5 MHz biplane with pulse-wave Doppler transesophageal echocardiographic tranducer with 4-way flexure (Model 21363A, Hewlett-Packard Co. Medical Products Group, Andover, Mass.) was advanced from the incisor teeth into the esophagus for a distance of approximately 40 cm. […] The electrocardiographic (EKG) lead II was continuously recorded. […]

Male Sprague-Dawley rats = test: Example 1: post-resuscitation myocardial dysfunction after VF cardiac arrest, drug infusion for 240 min post-resuscitation

SMILES | coronary venous lactate (male domestic pigs) | End Tidal CO2 [EtCO2] (Male Sprague-Dawley rats; PR10) [mmHg] | End Tidal CO2 [EtCO2] (Male Sprague-Dawley rats; PR40) [mmHg] | PaCO2 (Male Sprague-Dawley rats; PR40) [mmHg] | PaO2 (Male Sprague-Dawley rats; PR40) [mmHg] | aLactate (Male Sprague-Dawley rats; PR40) [mmol/L] | pHa (Male Sprague-Dawley rats; PR40 (post-resuscitation)) [units] | End Tidal CO2 [EtCO2] (Male Sprague-Dawley rats; PR70) [mmHg] | End Tidal CO2 [EtCO2] (Male Sprague-Dawley rats; PR120) [mmHg] | PaCO2 (Male Sprague-Dawley rats; PR120) [mmHg] | PaO2 (Male Sprague-Dawley rats; PR120) [mmHg] | aLactate (Male Sprague-Dawley rats; PR120) [mmol/L] | pHa (Male Sprague-Dawley rats; PR120) [units] | End Tidal CO2 [EtCO2] (Male Sprague-Dawley rats; PR180) [mmHg] | End Tidal CO2 [EtCO2] (Male Sprague-Dawley rats; PR240) [mmHg] | PaCO2 (Male Sprague-Dawley rats; PR240) [mmHg] | PaO2 (Male Sprague-Dawley rats; PR240) [mmHg] | aLactate (Male Sprague-Dawley rats; PR240) [mmol/L] | pHa (Male Sprague-Dawley rats; PR240) [units]
CC(CCc1ccc(O)cc1)NCCc1ccc(O)c(O)c1 (centres unmarked) [Dobutamine] | No differences | 33 ± 5 | 35 ± 3 | 36.6 ± 3.8 | 342.2 ± 62.7 | 2.2 ± 0.6 | 7.40 ± 0.05 | 35 ± 4 | 38 ± 1 | 39.2 ± 4.5 | 389.9 ± 62.3 | 1.2 ± 0.4 | 7.39 ± 0.04 | 36 ± 2 | 35 ± 3 | 37.4 ± 5.9 | 380.5 ± 40.2 | 1.1 ± 0.5 | 7.41 ± 0.05
C[C@@H]1CC(=O)NN=C1c1ccc(NN=C(C#N)C#N)cc1 [Levosimendan] | No differences | 33 ± 6 | 30 ± 6 | 32.3 ± 6.7 | 328.2 ± 71.7 | 3.9 ± 1.8 | 7.40 ± 0.02 | 35 ± 3 | 34 ± 4 | 33.4 ± 6.2 | 383.0 ± 43 | 1.6 ± 0.6 | 7.40 ± 0.04 | 32 ± 5 | 30 ± 7 | 30.7 ± 8.7 | 391.6 ± 60.4 | 1.4 ± 0.6 | 7.39 ± 0.03
